Reference: publication PMC8700327

Protein sequences, listed by entry. Tags and fused reporters are not part of them.
UniProt Q86YP4: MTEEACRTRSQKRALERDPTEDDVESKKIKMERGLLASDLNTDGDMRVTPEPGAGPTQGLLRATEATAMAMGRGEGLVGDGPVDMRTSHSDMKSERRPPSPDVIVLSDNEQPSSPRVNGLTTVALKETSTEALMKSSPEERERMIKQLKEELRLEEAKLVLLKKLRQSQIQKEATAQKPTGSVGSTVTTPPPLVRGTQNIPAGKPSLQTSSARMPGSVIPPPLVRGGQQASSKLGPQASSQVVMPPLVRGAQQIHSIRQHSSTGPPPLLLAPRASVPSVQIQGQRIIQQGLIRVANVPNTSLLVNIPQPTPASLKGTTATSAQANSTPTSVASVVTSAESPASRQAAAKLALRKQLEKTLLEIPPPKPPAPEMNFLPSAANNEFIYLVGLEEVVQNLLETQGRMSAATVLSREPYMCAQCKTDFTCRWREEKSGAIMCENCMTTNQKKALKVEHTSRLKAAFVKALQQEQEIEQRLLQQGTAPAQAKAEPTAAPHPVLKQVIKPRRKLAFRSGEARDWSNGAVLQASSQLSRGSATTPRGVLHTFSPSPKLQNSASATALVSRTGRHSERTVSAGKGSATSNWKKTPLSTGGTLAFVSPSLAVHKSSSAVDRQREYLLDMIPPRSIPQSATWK

Target: Flag-p66α (GATA zinc finger domain-containing protein 2A) (UniProt Q86YP4)
Experiment: affinity purification with mass spectrometry; lysate of HEK-293T cells stably expressing Flag-p66α; anti-Flag M2 agarose beads; washed with BC500 (500 mM KCl, 0.2% NP-40); eluted with Flag peptide; proteins between 40 and 55 kDa cut from the gel and identified by mass spectrometry

Q: Which binding does the source give for “endogenous p53 (from UniProt P04637 1-393)” here?
A: binds

Results are given in words; binding and its absence hold for the method and conditions named. Binding seen in cells or lysates may run through a third protein. Here binding means that the protein was enriched with, or labelled near, the bait; the list need not be complete.
